The target of the test is T1, C-terminal Flag-tagged wild-type human full-length eNOS (human) (UniProt P29474).
T1 sequence: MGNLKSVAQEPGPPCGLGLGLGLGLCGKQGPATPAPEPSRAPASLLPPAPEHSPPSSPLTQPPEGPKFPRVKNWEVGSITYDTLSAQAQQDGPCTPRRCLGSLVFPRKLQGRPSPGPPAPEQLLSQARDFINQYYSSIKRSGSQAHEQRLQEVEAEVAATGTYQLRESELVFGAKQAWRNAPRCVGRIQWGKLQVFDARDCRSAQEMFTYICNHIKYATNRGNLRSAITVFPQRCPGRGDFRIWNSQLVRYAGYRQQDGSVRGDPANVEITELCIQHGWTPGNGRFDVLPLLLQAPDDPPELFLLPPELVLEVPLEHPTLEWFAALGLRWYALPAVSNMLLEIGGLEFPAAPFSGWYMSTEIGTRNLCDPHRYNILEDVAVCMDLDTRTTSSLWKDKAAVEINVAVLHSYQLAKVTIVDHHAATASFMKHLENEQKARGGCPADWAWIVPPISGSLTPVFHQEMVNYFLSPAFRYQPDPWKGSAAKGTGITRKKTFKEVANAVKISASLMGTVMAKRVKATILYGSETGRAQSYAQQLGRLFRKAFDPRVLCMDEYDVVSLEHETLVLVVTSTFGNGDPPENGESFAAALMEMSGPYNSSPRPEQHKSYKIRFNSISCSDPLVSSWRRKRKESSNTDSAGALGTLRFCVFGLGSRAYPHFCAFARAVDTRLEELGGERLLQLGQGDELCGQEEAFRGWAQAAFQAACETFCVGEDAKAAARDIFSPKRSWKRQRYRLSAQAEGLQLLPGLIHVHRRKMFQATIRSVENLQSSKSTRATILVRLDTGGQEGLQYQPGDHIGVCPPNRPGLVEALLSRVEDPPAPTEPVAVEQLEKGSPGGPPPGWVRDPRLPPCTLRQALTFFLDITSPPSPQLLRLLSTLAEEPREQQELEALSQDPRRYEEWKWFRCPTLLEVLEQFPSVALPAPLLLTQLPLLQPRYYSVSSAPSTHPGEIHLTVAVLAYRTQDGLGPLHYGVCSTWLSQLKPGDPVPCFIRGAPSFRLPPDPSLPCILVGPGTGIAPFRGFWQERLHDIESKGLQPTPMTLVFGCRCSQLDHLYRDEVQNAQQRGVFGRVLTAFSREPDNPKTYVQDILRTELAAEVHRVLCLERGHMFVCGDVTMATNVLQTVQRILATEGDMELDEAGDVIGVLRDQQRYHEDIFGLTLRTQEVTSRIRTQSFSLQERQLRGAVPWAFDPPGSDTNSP
As to the kind of experiment: affinity purification with mass spectrometry.

No constants are given. Whether binding was seen depends on the method and setting. Binding seen in cells or lysates may run through a third protein. Here binding means that the protein was enriched with, or labelled near, the bait; the list need not be complete. Sequences can lack the tags named with a protein.

B1: double-stranded RNA-specific adenosine deaminase (ADAR1), human, endogenous (enzyme, UniProt P55265 1-1226)
chain: MNPRQGYSLSGYYTHPFQGYEHRQLRYQQPGPGSSPSSFLLKQIEFLKGQLPEAPVIGKQTPSLPPSLPGLRPRFPVLLASSTRGRQVDIRGVPRGVHLRSQGLQRGFQHPSPRGRSLPQRGVDCLSSHFQELSIYQDQEQRILKFLEELGEGKATTAHDLSGKLGTPKKEINRVLYSLAKKGKLQKEAGTPPLWKIAVSTQAWNQHSGVVRPDGHSQGAPNSDPSLEPEDRNSTSVSEDLLEPFIAVSAQAWNQHSGVVRPDSHSQGSPNSDPGLEPEDSNSTSALEDPLEFLDMAEIKEKICDYLFNVSDSSALNLAKNIGLTKARDINAVLIDMERQGDVYRQGTTPPIWHLTDKKRERMQIKRNTNSVPETAPAAIPETKRNAEFLTCNIPTSNASNNMVTTEKVENGQEPVIKLENRQEARPEPARLKPPVHYNGPSKAGYVDFENGQWATDDIPDDLNSIRAAPGEFRAIMEMPSFYSHGLPRCSPYKKLTECQLKNPISGLLEYAQFASQTCEFNMIEQSGPPHEPRFKFQVVINGREFPPAEAGSKKVAKQDAAMKAMTILLEEAKAKDSGKSEESSHYSTEKESEKTAESQTPTPSATSFFSGKSPVTTLLECMHKLGNSCEFRLLSKEGPAHEPKFQYCVAVGAQTFPSVSAPSKKVAKQMAAEEAMKALHGEATNSMASDNQPEGMISESLDNLESMMPNKVRKIGELVRYLNTNPVGGLLEYARSHGFAAEFKLVDQSGPPHEPKFVYQAKVGGRWFPAVCAHSKKQGKQEAADAALRVLIGENEKAERMGFTEVTPVTGASLRRTMLLLSRSPEAQPKTLPLTGSTFHDQIAMLSHRCFNTLTNSFQPSLLGRKILAAIIMKKDSEDMGVVVSLGTGNRCVKGDSLSLKGETVNDCHAEIISRRGFIRFLYSELMKYNSQTAKDSIFEPAKGGEKLQIKKTVSFHLYISTAPCGDGALFDKSCSDRAMESTESRHYPVFENPKQGKLRTKVENGEGTIPVESSDIVPTWDGIRLGERLRTMSCSDKILRWNVLGLQGALLTHFLQPIYLKSVTLGYLFSQGHLTRAICCRVTRDGSAFEDGLRHPFIVNHPKVGRVSIYDSKRQSGKTKETSVNWCLADGYDLEILDGTRGTVDGPRNELSRVSKKNIFLLFKKLCSFRYRRDLLRLSYGEAKKAARDYETAKNYFKKGLKDMGYGNWISKPQEEKNFYLCPV
Take B1: the binding result is given as “binds”.

Source of the values: paper doi:10.1101/2024.05.24.595750.
